# Reference: the supplement of paper PMC8728848
# This is one part of the list.
# B1: OS9 (Arabidopsis thaliana) (protein)
# chain: MRGSHHHHHHGMASMTGGQQMGRDLYDDDDKSRLQIFPAHLVGTFSRNNREPKYKIEFLPEDSPFHPGDNLESMVMLDKHGNRFLCYLPKEEKATSGWTSSQQNISTVMMETQQLVKLKTPDELLQPLSEKCLFRQEGWWSYEFCHQKYVRQLHVEDENKIVQEFFLGTFDPEATAAFNQTVSDASTDASQRYHSHVYTNGTTCDLTGSPAEVEVRFVCAETRAMVTSITELSTCKYALTVQCPTLCKHPLFQLEKPVSHTIHCNAIPVEEDATRNKEEQAVDESPKMIADS
# What was measured:
# Assay in all cases: glycan array binding signal (z-score within array); higher = stronger binding
# Conditions in all cases: glycan notation: IUPAC condensed, linker removed; mutation: R201A
# [1] = target: GlcNAc(b1-2)[GlcNAc(b1-4)]Man(a1-3)[GlcNAc(b1-4)][GlcNAc(b1-2)Man(a1-6)]Man(b1-4)GlcNAc(b1-4)GlcNAc
# Outline: (§1)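 Glycan array binding is given as a within-array Z-score, which can be read as non-binding when negative. The arrays, 3228 of them, came from the Consortium for Functional Glycomics database and were retained only where the protein sequence was available. Z-scores were averaged across arrays of the same protein sequence at different concentrations or buffers and across linkers.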
# [2] = target: GlcNAc(b1-2)[GlcNAc(b1-4)]Man(a1-3)[GlcNAc(b1-4)][GlcNAc(b1-2)[GlcNAc(b1-6)]Man(a1-6)]Man(b1-4)GlcNAc(b1-4)GlcNAc
# Outline: as §1
# [3] = target: GlcNAc(b1-2)[GlcNAc(b1-4)]Man(a1-3)[GlcNAc(b1-4)][GlcNAc(b1-2)[GlcNAc(b1-6)]Man(a1-6)]Man(b1-4)GlcNAc(b1-4)[Fuc(a1-6)]GlcNAc
# Outline: as §1
# [4] = target: GlcNAc(b1-2)[GlcNAc(b1-6)]Man(a1-6)[GlcNAc(b1-2)Man(a1-3)]Man(b1-4)GlcNAc(b1-4)GlcNAc
# Outline: as §1
# [5] = target: GlcNAc(b1-2)[GlcNAc(b1-6)]Man(a1-6)[GlcNAc(b1-2)Man(a1-3)]Man(b1-4)GlcNAc(b1-4)[Fuc(a1-6)]GlcNAc
# Outline: as §1
# [6] = target: GlcNAc(b1-2)[GlcNAc(b1-6)]Man(a1-6)[GlcNAc(b1-4)][GlcNAc(b1-2)Man(a1-3)]Man(b1-4)GlcNAc(b1-4)GlcNAc
# Outline: as §1
# GlcNAc(b1-3)Fuc = target: GlcNAc(b1-3)Fuc
# Outline: as §1
# GlcNAc(b1-3)Gal = target: GlcNAc(b1-3)Gal
# Outline: as §1
# [7] = target: GlcNAc(b1-3)Gal(b1-3)GalNAc
# Outline: as §1
# GlcNAc(b1-3)Gal(b1-4)Glc = target: GlcNAc(b1-3)Gal(b1-4)Glc
# Outline: as §1
# [8] = target: GlcNAc(b1-3)Gal(b1-4)GlcNAc
# Outline: as §1
# [9] = target: GlcNAc(b1-3)Gal(b1-4)GlcNAc(b1-2)Man(a1-3)[GlcNAc(b1-3)Gal(b1-4)GlcNAc(b1-2)Man(a1-6)]Man(b1-4)GlcNAc(b1-4)GlcNAc
# Outline: as §1
# [10] = target: GlcNAc(b1-3)Gal(b1-4)GlcNAc(b1-2)Man(a1-3)[GlcNAc(b1-3)Gal(b1-4)GlcNAc(b1-2)Man(a1-6)]Man(b1-4)GlcNAc(b1-4)[Fuc(a1-6)]GlcNAc
# Outline: as §1
# [11] = target: GlcNAc(b1-3)Gal(b1-4)GlcNAc(b1-2)[GlcNAc(b1-3)Gal(b1-4)GlcNAc(b1-6)]Man(a1-6)[GlcNAc(b1-3)Gal(b1-4)GlcNAc(b1-2)Man(a1-3)]Man(b1-4)GlcNAc(b1-4)GlcNAc
# Outline: as §1
# [12] = target: GlcNAc(b1-3)Gal(b1-4)GlcNAc(b1-3)Gal(b1-4)GlcNAc
# Outline: as §1
# [13] = target: GlcNAc(b1-3)Gal(b1-4)GlcNAc(b1-3)Gal(b1-4)GlcNAc(b1-2)Man(a1-3)[GlcNAc(b1-3)Gal(b1-4)GlcNAc(b1-3)Gal(b1-4)GlcNAc(b1-2)Man(a1-6)]Man(b1-4)GlcNAc(b1-4)GlcNAc
# Outline: as §1
# [14] = target: GlcNAc(b1-3)Gal(b1-4)GlcNAc(b1-3)Gal(b1-4)GlcNAc(b1-2)Man(a1-3)[GlcNAc(b1-3)Gal(b1-4)GlcNAc(b1-3)Gal(b1-4)GlcNAc(b1-2)Man(a1-6)]Man(b1-4)GlcNAc(b1-4)[Fuc(a1-6)]GlcNAc
# Outline: as §1
# [15] = target: GlcNAc(b1-3)Gal(b1-4)GlcNAc(b1-3)Gal(b1-4)GlcNAc(b1-2)[GlcNAc(b1-3)Gal(b1-4)GlcNAc(b1-3)Gal(b1-4)GlcNAc(b1-6)]Man(a1-6)[GlcNAc(b1-3)Gal(b1-4)GlcNAc(b1-3)Gal(b1-4)GlcNAc(b1-2)Man(a1-3)]Man(b1-4)GlcNAc(b1-4)[Fuc(a1-6)]GlcNAc
# Outline: as §1
# [16] = target: GlcNAc(b1-3)Gal(b1-4)GlcNAc(b1-3)Gal(b1-4)GlcNAc(b1-3)Gal(b1-4)GlcNAc(b1-2)Man(a1-3)[GlcNAc(b1-3)Gal(b1-4)GlcNAc(b1-3)Gal(b1-4)GlcNAc(b1-3)Gal(b1-4)GlcNAc(b1-2)Man(a1-6)]Man(b1-4)GlcNAc(b1-4)GlcNAc
# Outline: as §1
# [17] = target: GlcNAc(b1-3)Gal(b1-4)GlcNAc(b1-3)Gal(b1-4)GlcNAc(b1-3)Gal(b1-4)GlcNAc(b1-2)Man(a1-3)[GlcNAc(b1-3)Gal(b1-4)GlcNAc(b1-3)Gal(b1-4)GlcNAc(b1-3)Gal(b1-4)GlcNAc(b1-2)Man(a1-6)]Man(b1-4)GlcNAc(b1-4)[Fuc(a1-6)]GlcNAc
# Outline: as §1
# [18] = target: GlcNAc(b1-3)Gal(b1-4)GlcNAc(b1-3)Gal(b1-4)GlcNAc(b1-3)Gal(b1-4)GlcNAc(b1-2)[GlcNAc(b1-3)Gal(b1-4)GlcNAc(b1-3)Gal(b1-4)GlcNAc(b1-3)Gal(b1-4)GlcNAc(b1-6)]Man(a1-6)[GlcNAc(b1-3)Gal(b1-4)GlcNAc(b1-3)Gal(b1-4)GlcNAc(b1-3)Gal(b1-4)GlcNAc(b1-2)Man(a1-3)]Man(b1-4)GlcNAc(b1-4)[Fuc(a1-6)]GlcNAc
# Outline: as §1
# [19] = target: GlcNAc(b1-3)Gal(b1-4)GlcNAc(b1-3)Gal(b1-4)GlcNAc(b1-3)Gal(b1-4)GlcNAc(b1-3)Gal(b1-4)GlcNAc(b1-2)Man(a1-3)[GlcNAc(b1-3)Gal(b1-4)GlcNAc(b1-3)Gal(b1-4)GlcNAc(b1-3)Gal(b1-4)GlcNAc(b1-3)Gal(b1-4)GlcNAc(b1-2)Man(a1-6)]Man(b1-4)GlcNAc(b1-4)GlcNAc
# Outline: as §1
# [20] = target: GlcNAc(b1-3)Gal(b1-4)GlcNAc(b1-3)Gal(b1-4)GlcNAc(b1-3)Gal(b1-4)GlcNAc(b1-3)Gal(b1-4)GlcNAc(b1-2)Man(a1-3)[GlcNAc(b1-3)Gal(b1-4)GlcNAc(b1-3)Gal(b1-4)GlcNAc(b1-3)Gal(b1-4)GlcNAc(b1-3)Gal(b1-4)GlcNAc(b1-2)Man(a1-6)]Man(b1-4)GlcNAc(b1-4)[Fuc(a1-6)]GlcNAc
# Outline: as §1
# [21] = target: GlcNAc(b1-3)Gal(b1-4)GlcNAc(b1-3)Gal(b1-4)GlcNAc(b1-3)Gal(b1-4)GlcNAc(b1-3)Gal(b1-4)GlcNAc(b1-2)[GlcNAc(b1-3)Gal(b1-4)GlcNAc(b1-3)Gal(b1-4)GlcNAc(b1-3)Gal(b1-4)GlcNAc(b1-3)Gal(b1-4)GlcNAc(b1-6)]Man(a1-6)[GlcNAc(b1-3)Gal(b1-4)GlcNAc(b1-3)Gal(b1-4)GlcNAc(b1-3)Gal(b1-4)GlcNAc(b1-3)Gal(b1-4)GlcNAc(b1-2)Man(a1-3)]Man(b1-4)GlcNAc(b1-4)[Fuc(a1-6)]GlcNAc
# Outline: as §1
# [22] = target: GlcNAc(b1-3)Gal(b1-4)GlcNAc(b1-3)Gal(b1-4)GlcNAc(b1-3)GalNAc
# Outline: as §1
# [23] = target: GlcNAc(b1-3)Gal(b1-4)GlcNAc(b1-3)GalNAc
# Outline: as §1
# [24] = target: GlcNAc(b1-3)Gal(b1-4)GlcNAc(b1-3)[GlcNAc(b1-3)Gal(b1-4)GlcNAc(b1-3)]GalNAc
# Outline: as §1
# [25] = target: GlcNAc(b1-3)Gal(b1-4)GlcNAc(b1-6)[Gal(b1-3)]GalNAc
# Outline: as §1
# [26] = target: GlcNAc(b1-3)Gal(b1-4)GlcNAc(b1-6)[GlcNAc(b1-3)Gal(b1-3)]GalNAc
# Outline: as §1
# [27] = target: GlcNAc(b1-3)Gal(b1-4)GlcNAc(b1-6)[GlcNAc(b1-3)]Gal(b1-4)GlcNAc
# Outline: as §1
# GlcNAc(b1-3)GalNAc = target: GlcNAc(b1-3)GalNAc
# Outline: as §1
# GlcNAc(b1-3)Man = target: GlcNAc(b1-3)Man
# Outline: as §1
# [28] = target: GlcNAc(b1-3)[GlcNAc(b1-4)][GlcNAc(b1-6)]GlcNAc
# Outline: as §1
# [29] = target: GlcNAc(b1-3)[GlcNAc(b1-6)]Gal(b1-4)GlcNAc
# Outline: as §1
# [30] = target: GlcNAc(b1-3)[GlcNAc(b1-6)]GalNAc
# Outline: as §1
# [31] = target: GlcNAc(b1-4)Gal(b1-4)GlcNAc
# Outline: as §1
# GlcNAc(b1-4)GlcNAc = target: GlcNAc(b1-4)GlcNAc
# Outline: as §1
# [32] = target: GlcNAc(b1-4)GlcNAc(b1-4)GlcNAc
# Outline: as §1
binder,measurement,setting,value
B1,glycan array binding signal (z-score),[1],-0.368
same,glycan array binding signal (z-score),[2],0.68
same,glycan array binding signal (z-score),[3],-0.546
same,glycan array binding signal (z-score),[4],-0.781
same,glycan array binding signal (z-score),[5],-0.361
same,glycan array binding signal (z-score),[6],0.294
same,glycan array binding signal (z-score),GlcNAc(b1-3)Fuc,0.403
same,glycan array binding signal (z-score),GlcNAc(b1-3)Gal,-0.422
same,glycan array binding signal (z-score),[7],0.162
same,glycan array binding signal (z-score),GlcNAc(b1-3)Gal(b1-4)Glc,0.608
same,glycan array binding signal (z-score),[8],-0.104
same,glycan array binding signal (z-score),[9],0.147
same,glycan array binding signal (z-score),[10],2.59
same,glycan array binding signal (z-score),[11],-1.15
same,glycan array binding signal (z-score),[12],-0.275
same,glycan array binding signal (z-score),[13],0.393
same,glycan array binding signal (z-score),[14],0.868
same,glycan array binding signal (z-score),[15],0.683
same,glycan array binding signal (z-score),[16],-0.356
same,glycan array binding signal (z-score),[17],0.66
same,glycan array binding signal (z-score),[18],-0.201
same,glycan array binding signal (z-score),[19],-0.601
same,glycan array binding signal (z-score),[20],-0.796
same,glycan array binding signal (z-score),[21],-0.837
same,glycan array binding signal (z-score),[22],-0.437
same,glycan array binding signal (z-score),[23],0.036
same,glycan array binding signal (z-score),[24],-0.336
same,glycan array binding signal (z-score),[25],-0.524
same,glycan array binding signal (z-score),[26],-0.626
same,glycan array binding signal (z-score),[27],0.166
same,glycan array binding signal (z-score),GlcNAc(b1-3)GalNAc,-0.197
same,glycan array binding signal (z-score),GlcNAc(b1-3)Man,-0.811
same,glycan array binding signal (z-score),[28],-1.31
same,glycan array binding signal (z-score),[29],-0.217
same,glycan array binding signal (z-score),[30],0.649
same,glycan array binding signal (z-score),[31],0.805
same,glycan array binding signal (z-score),GlcNAc(b1-4)GlcNAc,8.22
same,glycan array binding signal (z-score),[32],0.6
